Experiment: peptide synthesis
Details: conjugation step, UV 220, 240, 280 nm, TFA salt

[Myr2]-KSSKSPSKKDDKKPGDK(CO—CH2-S—CH2-CH2-Phe-Cha-Cha-Arg-Lys-Pro-Asn-Asp-Lys-NH2)NH2 (Myr2, thioether-linked Phe-Cha-Cha branch, C-terminal amide; Synthetic compound (PTL0GC1 - including Lysine residue))
final HPLC purity: >95%

Reference: patent US20230167155A1 (KING'S COLLEGE LONDON, priority 2020, published 2023)
